No constants are given. Whether binding was seen depends on the method and setting. Some entries that bind do so weakly or less than the wild type.
What was measured:
[1] = molecular target: GST-hGWL-KinDom fusion (minimal kinase domain construct of human Greatwall kinase, NCMR replaced by 'RTFC' of PKCα) (human) (UniProt Q96GX5); assay: co-purification on glutathione resin; as a1, but the co-purified GST-hGWL-KinDom/GroEL was incubated with ATP to release GroEL
[2] = molecular target: GST-hGWL-KinDom fusion (minimal kinase domain construct of human Greatwall kinase, NCMR replaced by 'RTFC' of PKCα) (human) (UniProt Q96GX5); assay: co-purification on glutathione resin; GST-hGWL-KinDom expressed in E. coli and purified by standard chromatography (Amintra Glutathione Resin); host GroEL came with the fusion

Protein sequences, listed by entry. Tags and fused reporters are not part of them.
UniProt P0A6F5: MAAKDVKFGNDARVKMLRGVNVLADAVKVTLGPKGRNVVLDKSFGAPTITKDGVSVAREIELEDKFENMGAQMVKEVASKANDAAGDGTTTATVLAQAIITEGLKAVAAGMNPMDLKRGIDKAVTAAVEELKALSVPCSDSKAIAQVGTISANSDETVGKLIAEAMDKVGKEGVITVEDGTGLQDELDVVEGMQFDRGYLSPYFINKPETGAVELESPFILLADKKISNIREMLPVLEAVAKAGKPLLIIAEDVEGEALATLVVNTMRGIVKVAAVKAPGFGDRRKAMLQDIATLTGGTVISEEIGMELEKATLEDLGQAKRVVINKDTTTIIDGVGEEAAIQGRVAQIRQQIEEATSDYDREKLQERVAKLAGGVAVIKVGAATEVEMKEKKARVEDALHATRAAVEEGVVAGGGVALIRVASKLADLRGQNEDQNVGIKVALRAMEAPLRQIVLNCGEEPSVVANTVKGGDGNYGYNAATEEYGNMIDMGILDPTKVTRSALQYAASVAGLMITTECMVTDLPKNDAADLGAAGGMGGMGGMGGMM

## E.coli chaperone GroEL (from UniProt P0A6F5 1-548)
[1]
  binding: no binding (condition: incubation with ATP)
[2]
  binding: binds
